Measured data: PubChem BioAssay AID1259306 (Sanger Institute, 2017)

Screen: 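Find kinases whose loss reduces colorectal cancer cell viability or aids targeted drugs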 (primary screen)
Cell system: human SNU-C5 colorectal cancer cells
Knock-down reagent: siRNA pool against human genes
Conditions: DMSO vehicle alone, or one anchor drug: BYL719 at 1 µM, cetuximab at 5 µg/ml or trametinib at 10 nM, given 24 h into the assay
Measured: 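Viability versus non-targeting pool averaged across replicates, given as fraction and robust z-score, and synergy scores for BYL719, cetuximab or trametinib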
Reading the numbers: robust z-score, knock-down alone and viability, knock-down alone: higher = more viable cells; synergy score with BYL719: higher = stronger synthetic lethality with BYL719; synergy score with cetuximab: higher = stronger synthetic lethality with cetuximab
Call rule: 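Essential if knock-down without drug gives a robust z-score under -3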
Meaning of the calls: active = essential (knock-down alone); inactive = no change alone
Here is a random part of 794 deposited reagents. 11 of them (1.4%) count as active. 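Calls reflect knock-down alone; synergy scores play no part, so knock-downs synergising with a drug can be called no change.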 No viability above 1 is reported: the scale is capped. Further read-outs or replicates are left out here. Not stated in the record: the amount of reagent, the time to read-out.

| Gene | robust z-score, knock-down alone | viability, knock-down alone | synergy score with BYL719 | synergy score with cetuximab | call |
| --- | --- | --- | --- | --- | --- |
| SNRK (SNF related kinase) | 0.942 | 0.994 | 0.00425 | 0.0033 | inactive |
| IPMK (inositol polyphosphate multikinase) | -0.982 | 0.728 | -0.272 | -0.272 | inactive |
| DYRK1A | 0.989 | 1 | 0.146 | 0 | inactive |
| MAPK14 (mitogen-activated protein kinase 14) | -0.402 | 0.808 | -0.133 | -0.0633 | inactive |
| SRC (SRC proto-oncogene, non-receptor tyrosine kinase) | -0.321 | 0.82 | -0.18 | -0.18 | inactive |
| MAP2K1 (mitogen-activated protein kinase kinase 1) | 0.361 | 0.913 | 0.0387 | -0.0623 | inactive |
| PNCK (pregnancy up-regulated nonubiquitous CaM kinase) | 0.74 | 0.966 | 0.258 | 0.0206 | inactive |
| LMBR1 (limb development membrane protein 1) | 0.622 | 0.949 | 0.194 | 0.0283 | inactive |
| MAPK9 (mitogen-activated protein kinase 9) | 0.989 | 1 | 0 | 0 | inactive |
| ATRX (ATRX chromatin remodeler) | 0.625 | 0.95 | -0.0501 | 0.182 | inactive |
| UCK2 (uridine-cytidine kinase 2) | 0.989 | 1 | 0.268 | 0.191 | inactive |
| CDK12 (cyclin dependent kinase 12) | 0.491 | 0.931 | 0.0249 | -0.0477 | inactive |
| CDK18 (cyclin dependent kinase 18) | -2.45 | 0.526 | -0.0551 | -0.139 | inactive |
| TP53RK (TP53 regulating kinase) | 0.989 | 1 | 0.133 | 0.0631 | inactive |
| LCK (LCK proto-oncogene, Src family tyrosine kinase) | 0.888 | 0.986 | 0.285 | -0.0139 | inactive |
| CDC42BPB (CDC42 binding protein kinase beta) | 0.225 | 0.895 | -0.071 | -0.105 | inactive |
| ABL2 (ABL proto-oncogene 2, non-receptor tyrosine kinase) | 0.989 | 1 | 0 | 0.0657 | inactive |
| BRD4 (bromodomain containing 4) | -0.444 | 0.803 | -0.0125 | -0.129 | inactive |
| PSKH1 (protein serine kinase H1) | 0.366 | 0.914 | 0.0831 | -0.0175 | inactive |
| RELA (RELA proto-oncogene, NF-kB subunit) | -0.266 | 0.827 | 0.0971 | 0.0672 | inactive |

Laid out differently: results already given
Gene,"robust z-score, knock-down alone","viability, knock-down alone",synergy score with BYL719,synergy score with cetuximab,call
ATRX (ATRX chromatin remodeler),0.625,0.95,-0.0501,0.182,inactive
UCK2 (uridine-cytidine kinase 2),0.989,1,0.268,0.191,inactive
CDK12 (cyclin dependent kinase 12),0.491,0.931,0.0249,-0.0477,inactive
